# In PubChem BioAssay AID485314 (National Center for Advancing Translational Sciences (NCATS), 2010):
# Among all 340,000 compounds or so, about 4,500 (1.3%) were called active. The inconclusive results got no clear call from the source; some entries with a clear call stand among them for comparison. Calls follow the shape of the dose curve; as a rule, active = well fitted inhibition curve with a large enough effect; inconclusive = small, poorly fitted or top-dose-only effect, or another doubt; inactive = no such curve, though single readings can be large or run the other way. Potencies beside an inconclusive call are fits to weak or partial responses and may not hold up.
# Biological target: DNA polymerase beta (Homo sapiens) (UniProt P06746)
# Experiment: qHTS Assay for Inhibitors of DNA Polymerase Beta
# Details: Pol beta primer extension/strand displacement, fluorescence kinetic; activity change, negative = inhibition: at 114 µM (top of the series)
# Summary of the method: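 10 nM enzyme + cpd, 15 min RT; start with substrate 50 nM final; read 0 min and after 10 min RT. Corrected, normalized data; 4-parameter Hill curve fit.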
# % is scaled to controls: 0 for no effect and ±100 for the full control effect; potency is read from the fitted curve at half-maximal effect.
SMILES,Potency,"activity change, negative = inhibition"
CC(C)c1nc2sc3c(SCC(=O)NCc4ccco4)ncnc3c2c2c1CCC2,active: 22.4 µM,
Cc1cccc(C)c1-n1cccc1/C=C1/C(=N)N2C(=NC1=O)SN=C2S(C)(=O)=O,"inconclusive: 89.1 µM [inhibitor, single point]",
O=C(c1cc(-c2ccco2)on1)N1CCCc2ccccc21,active: 35.5 µM,
CCOc1ccccc1NC(=O)N1CCc2c(sc(C)c2CC)C1c1ccccc1 (stereo unspecified),,inactive: 18.6%
Cc1cc(C)n2c(SCC(=O)NC3CCCC(C)C3C)nnc2n1 (stereo unspecified),"inconclusive: 35.5 µM [inhibitor, full curve]",
Cc1ccc(OCc2ccc(C(=O)NNC(=S)NCC3CCCO3)o2)c([N+](=O)[O-])c1 (stereo unspecified),"inconclusive: 3.98 µM [inhibitor, single point]",
CCCc1cnc2c(c1SCC(=O)Nc1ccc(C)c(Cl)c1)c(=O)n(C)c(=O)n2C,,inactive: -0.968%
CC(=O)Nc1ccc(NC(=O)CSc2nnnn2-c2ccc3c(c2)OCCO3)cc1,"inconclusive: 15.8 µM [inhibitor, full curve]",
CS(=O)(=O)c1sc2nc(-c3cccs3)cc(-c3ccccc3)c2c1N,"inconclusive: 89.1 µM [inhibitor, single point]",
Cc1cc(C)nc(-n2nc(C)c3c2N(Cc2ccccc2)C(=O)CC3c2ccc(Cl)cc2)n1 (stereo unspecified),"inconclusive: 35.5 µM [inhibitor, single point]",
O=C(CSc1oc(-c2ccccc2)nc1S(=O)(=O)c1ccc(Cl)cc1)c1ccccc1,,inactive: 3.37%
CCC(c1nnnn1Cc1ccccc1)N1CCN(c2ccc(OC)cc2)CC1 (stereo unspecified),"inconclusive: 63.1 µM [inhibitor, single point]",
C[C@@H](NC(=O)/C(C#N)=C/c1ccc(O)c(O)c1)c1ccccc1,,inactive: 9.52% [at 57.1 µM]
CC(C)(C)c1nc2ccccc2c2nnc(SCC(=O)Nc3nc4ccccc4s3)n12,active: 0.178 µM,
COc1ccc(OC)c(CNc2ccc3c(c2)CCC3)c1,"inconclusive: 89.1 µM [inhibitor, single point]",
O=C(Oc1ccc2c3c(c(=O)oc2c1)CCCC3)c1ccco1,"inconclusive: 3.55 µM [inhibitor, partial curve, poor fit]",
COc1cccc(Oc2ccc(C(F)(F)F)cc2NC(=O)CCc2nc3ccccc3c(=O)[nH]2)c1,"inconclusive: 39.8 µM [inhibitor, partial curve, poor fit]",
COc1ccc(-c2c(C)c3ccc(OCC(C)=O)cc3oc2=O)cc1,"inconclusive: 0.224 µM [inhibitor, full curve, poor fit]",
Cc1c(Cl)cccc1NS(=O)(=O)c1ccc(-c2cnc(C3CC3)o2)cc1,"inconclusive: 39.8 µM [inhibitor, single point]",
COc1ccc(C(=O)N/N=C/c2sc(N3CCOCC3)nc2-c2ccccc2)cc1OC,"inconclusive: 3.55 µM [inhibitor, full curve]",
Cc1ccccc1NC(=O)c1c(C)oc2ccc(O)c(CN3CCOCC3)c12,"inconclusive: 0.282 µM [inhibitor, full curve, poor fit]",
Cc1cc(SCC(=O)N/N=C/c2ccc(O)c(O)c2O)c(C)cc1Br,"inconclusive: 3.16 µM [inhibitor, full curve]",
O=C1NN(c2cccc(Br)c2)C(=O)/C1=C\c1ccc(O)cc1,"inconclusive: 39.8 µM [inhibitor, partial curve]",
CN1CCN(CCOCCOc2ccc(Br)cc2Cl)CC1,"inconclusive: 89.1 µM [inhibitor, single point]",

# A different layout for 17 compounds above:
SMILES	Potency	activity change, negative = inhibition
Cc1cccc(C)c1-n1cccc1/C=C1/C(=N)N2C(=NC1=O)SN=C2S(C)(=O)=O	inconclusive: 89.1 µM [inhibitor, single point]	
O=C(c1cc(-c2ccco2)on1)N1CCCc2ccccc21	active: 35.5 µM	
CCOc1ccccc1NC(=O)N1CCc2c(sc(C)c2CC)C1c1ccccc1 (stereo unspecified)		inactive: 18.6%
Cc1ccc(OCc2ccc(C(=O)NNC(=S)NCC3CCCO3)o2)c([N+](=O)[O-])c1 (stereo unspecified)	inconclusive: 3.98 µM [inhibitor, single point]	
CC(=O)Nc1ccc(NC(=O)CSc2nnnn2-c2ccc3c(c2)OCCO3)cc1	inconclusive: 15.8 µM [inhibitor, full curve]	
CS(=O)(=O)c1sc2nc(-c3cccs3)cc(-c3ccccc3)c2c1N	inconclusive: 89.1 µM [inhibitor, single point]	
Cc1cc(C)nc(-n2nc(C)c3c2N(Cc2ccccc2)C(=O)CC3c2ccc(Cl)cc2)n1 (stereo unspecified)	inconclusive: 35.5 µM [inhibitor, single point]	
O=C(CSc1oc(-c2ccccc2)nc1S(=O)(=O)c1ccc(Cl)cc1)c1ccccc1		inactive: 3.37%
CCC(c1nnnn1Cc1ccccc1)N1CCN(c2ccc(OC)cc2)CC1 (stereo unspecified)	inconclusive: 63.1 µM [inhibitor, single point]	
C[C@@H](NC(=O)/C(C#N)=C/c1ccc(O)c(O)c1)c1ccccc1		inactive: 9.52% [at 57.1 µM]
COc1ccc(OC)c(CNc2ccc3c(c2)CCC3)c1	inconclusive: 89.1 µM [inhibitor, single point]	
O=C(Oc1ccc2c3c(c(=O)oc2c1)CCCC3)c1ccco1	inconclusive: 3.55 µM [inhibitor, partial curve, poor fit]	
COc1cccc(Oc2ccc(C(F)(F)F)cc2NC(=O)CCc2nc3ccccc3c(=O)[nH]2)c1	inconclusive: 39.8 µM [inhibitor, partial curve, poor fit]	
COc1ccc(-c2c(C)c3ccc(OCC(C)=O)cc3oc2=O)cc1	inconclusive: 0.224 µM [inhibitor, full curve, poor fit]	
Cc1c(Cl)cccc1NS(=O)(=O)c1ccc(-c2cnc(C3CC3)o2)cc1	inconclusive: 39.8 µM [inhibitor, single point]	
Cc1cc(SCC(=O)N/N=C/c2ccc(O)c(O)c2O)c(C)cc1Br	inconclusive: 3.16 µM [inhibitor, full curve]	
O=C1NN(c2cccc(Br)c2)C(=O)/C1=C\c1ccc(O)cc1	inconclusive: 39.8 µM [inhibitor, partial curve]	

# The listing continues:

SMILES,Potency,"activity change, negative = inhibition"
Cc1ccccc1Nc1nc(-c2cccnc2)cs1,"inconclusive: 28.2 µM [inhibitor, single point]",
Cc1cccc(NCc2ccc(O)c3ncccc23)c1,,inactive: -0.788%
CCn1cc(S(=O)(=O)c2cccc(C)c2)c(=O)c2cc(F)c(N3CCCC(C)C3)cc21 (stereo unspecified),,inactive: 11.3%
CC(=O)N1N=C(N)SC1(C)C,,inactive: -12.8%
COc1ccc(NC(=O)Cn2cnc3sc(C)c(S(=O)(=O)N4CCOCC4)c3c2=O)cc1Cl,,inactive: -0.168%
CCN(CC)S(=O)(=O)c1ccc(C(=O)OCC(=O)NCc2ccco2)cc1,"inconclusive: 14.1 µM [inhibitor, full curve]",
c1ccc(Nc2nc(N3CCNCC3)nc(N3CCOCC3)n2)cc1,"inconclusive: 89.1 µM [inhibitor, single point]",
NC(=O)c1c(NC(=O)CS(=O)(=O)c2ccc(Cl)cc2)sc2c1CCCCC2,"inconclusive: 35.5 µM [inhibitor, full curve]",
OC[C@@H](O)[C@H](O)C(/C=N/Nc1ccccc1)=N\Nc1ccccc1,,inactive: 1.37%
CC(=O)c1ccc(NC(=O)c2ccc3snnc3c2)cc1,active: 25.1 µM,
Cc1ccc(NC(=O)CN2C(=O)N/C(=C/c3ccccc3OCc3cccc(C(=O)O)c3)C2=O)cc1,active: 35.5 µM,
O=C(O)CCCC(=O)Nc1ccc(Cl)cc1,"inconclusive: 0.158 µM [inhibitor, full curve, poor fit]",
COc1cc(/C=N/NC(=O)c2ccccc2Cl)ccc1Oc1ccc([N+](=O)[O-])cn1,"inconclusive: 70.8 µM [inhibitor, single point]",
Cc1ccc(NC(=O)NNC(=O)COc2ccc3ccccc3c2)cc1,active: 79.4 µM,
O=C(Cn1cnc2ccccc2c1=O)NCCC(=O)Nc1ccc2c(c1)OCCO2,"inconclusive: 28.2 µM [inhibitor, partial curve, poor fit]",
Cc1c(C)n(CCN(C)C)c2ccc(C(=O)OCCN(C)C)cc12,"inconclusive: 12.6 µM [inhibitor, partial curve, poor fit]",
C/C(=N\NC(=O)c1cc(C)nc2ccccc12)c1ccco1,"inconclusive: 0.794 µM [inhibitor, full curve, poor fit]",
COc1ccc(OC)c2[nH]c(=O)c(CCNC(=O)C(=O)c3c[nH]c4ccccc34)cc12,"inconclusive: 15.8 µM [inhibitor, full curve]",
CCCNC(=O)c1cc(C)no1,"inconclusive: 100 µM [inhibitor, single point]",
O=C(N/N=C/c1ccc(Cl)cc1Cl)c1ccc2nc[nH]c2c1,active: 15.8 µM,
O=C(CSC1=NC(=O)C(Cc2ccccc2)C(=O)N1)Nc1ncc(Br)cc1Br (stereo unspecified),"inconclusive: 89.1 µM [inhibitor, single point]",
C=CCN1C(=O)C2(OCCCO2)c2cc(C)ccc21,"inconclusive: 2.82 µM [inhibitor, full curve]",
CN(C)S(=O)(=O)c1ccc(C(=O)OCC(=O)Nc2sc3c(c2C#N)CCCCC3)cc1,"inconclusive: 3.98 µM [inhibitor, single point]",
CC(=O)Nc1c(O)nc(SCC(=O)Nc2nnc(CC(C)C)s2)[nH]c1=O,,inactive: 3.94%

SMILES,Potency,"activity change, negative = inhibition"
COc1cccc(C2Nc3ccccc3C(=O)N2O)c1O (stereo unspecified),,inactive: -0.33%
Cc1ccc(S(=O)(=O)N(CC(=O)N/N=C/c2cccc(Cl)c2)c2cccc3cccnc23)cc1,"inconclusive: 8.91 µM [inhibitor, full curve, poor fit]",
CCCOc1ccc(-c2cccc(NS(=O)(=O)c3ccccc3)c2)nn1,,inactive: 0.493%
CN(Cc1ccccc1)C(=O)C1CCN(S(=O)(=O)c2cccc3nonc23)CC1,,inactive: -8.65%
Cc1ccc(OCC(=O)NNC(=O)c2cc3ccccc3o2)cc1C,active: 28.2 µM,
COc1ccc(OCc2nnc3n2N=C(c2ccccc2)C(CC(=O)O)S3)cc1 (stereo unspecified),active: 22.4 µM,
COc1ccc2cc1Oc1ccc(cc1)C[C@H]1c3cc(c(OC)cc3CCN1C)Oc1c(OC)c(OC)cc3c1[C@H](C2)N(C)CC3,,inactive: -1.25%
CC(=O)c1cc2c(O)c(O)ccc2o1,"inconclusive: 11.2 µM [inhibitor, partial curve]",
Cc1c(C(=O)NCCN(C)C)oc2ccc(S(=O)(=O)N3CCC4(CC3)OCCO4)cc12,"inconclusive: 89.1 µM [inhibitor, single point]",
CC(C)Nc1nc2ccccc2c(=O)[nH]1,,inactive: 24.3%
C/C(N)=C(/C#N)C(=O)CSc1nnnn1-c1ccccc1,active: 35.5 µM,
Cc1cc(C)c(NC(=O)CSc2nnc(CNC(=O)c3ccco3)o2)c(C)c1,,inactive: 7.68%
CCn1c(=O)cc(SCC(=O)NCc2cccc(Cl)c2)c2ccccc21,,inactive: -29.3%
N#Cc1c(NC(=O)CSc2nnc(-c3ccco3)n2-c2ccccc2)sc2c1CCC2,active: 25.1 µM,
CCN1C(=O)c2ccccc2Sc2ccc(NC(=O)N3CCN(c4cc(C)ccc4C)CC3)cc21,"inconclusive: 39.8 µM [inhibitor, single point]",
CCOC(=O)c1ccc(NC(=O)C(CC)Sc2nc3ccncc3[nH]2)cc1 (stereo unspecified),,inactive: 10.7%
Cc1cccc(OCC(=O)Nc2cccc(-c3nnc(-c4ccccc4)o3)c2)c1C,"inconclusive: 3.16 µM [inhibitor, full curve]",
Cc1ccc(C)c2[nH]c(=O)c(C(c3nnnn3Cc3ccco3)N3CCc4ccccc4C3)cc12 (stereo unspecified),"inconclusive: 3.16 µM [inhibitor, single point]",
COc1ccc(Cl)cc1C(=O)Nc1cccc(-c2ccc3nncn3n2)c1,"inconclusive: 3.55 µM [inhibitor, full curve, poor fit]",
Cc1ccc(N2C(=N)/C(=C3/Nc4ccccc4S3)C(c3ccccc3)C2=O)cc1 (stereo unspecified),,inactive: 2.71% [at 57.1 µM]
O=C(Nc1nc(-c2ccccn2)cs1)c1ccc([N+](=O)[O-])o1,"inconclusive: 20 µM [inhibitor, full curve]",
O=C1CCCc2cc(S(=O)(=O)N3CCCC(C(=O)NCc4ccc(Cl)cc4)C3)ccc2N1 (stereo unspecified),,inactive: 15.2%
CCN(CC(=O)N1CCC(C(N)=O)CC1)S(=O)(=O)c1ccc(Cl)cc1,,inactive: 53.5%
